# According to PubChem BioAssay AID445 (National Center for Advancing Translational Sciences (NCATS), 2006):
# This is one part of the list. These are further read-outs of the screen, such as a control signal, another cell line or another target. No call is given for them. Compounds called inactive in the main read-out are mostly missing here. Words in brackets tell the shape of the fitted curve; partial curves, single points and poor fits give uncertain potencies.
# Experiment: IkB Signaling
# Conditions: ABC-DLBCL IkBa-CBG/CBR dual luciferase ratio (green luciferase fused to IkBa over red control in OCI-Ly3 lymphoma cells), 4 h; measured here: control luc red channel unless noted
# Summary of the method: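 Curves were fitted separately to fusion (green), unfused (red) and ratio luminescence, then classed by r2, magnitude and activity. Cells: OCI-Ly3, 4 h compound plus doxycycline at 37C; 10 uM MG-132 defined full response.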
row,Compound,AC50
1,CCCOc1c(OC)cccc1C1CC(=O)Nc2cc3c(cc21)OCCO3 (stereo not drawn),"3.16 µM [falling, full curve]"
2,COc1ccccc1C1C(C(=O)c2cc3ccccc3o2)=C(O)C(=O)N1CCN(C)C (stereo not drawn),"12.6 µM [falling, partial curve]"
3,N#C/C(=C\c1ccc(OCc2ccc(Cl)cc2Cl)cc1)c1nc2ccccc2[nH]1,"6.31 µM [falling, partial curve]"
4,C=CCn1c(SCC(=O)Nc2cccc(C(=O)OC)c2)nnc1C(C)NC(=O)c1cccs1 (stereo not drawn),"15.8 µM [falling, partial curve]"
5,O=C(Nc1cccc(Br)c1)N1CCN2CCCCC2C1 (stereo not drawn),"12.6 µM [falling, partial curve]"
6,COc1ccc(OC)c(CNC(=O)c2cc3c(Cl)nc4ccccc4c3s2)c1,"12.6 µM [falling, partial curve]"
7,CCCNC(=O)Cn1nc(-c2ccc(OC)cc2)c2cnc3ccc(F)cc3c21,"0.0158 µM [rising, full curve, poor fit]"
8,C=CCc1c(C)nc(SCc2nc3ccccc3c(=O)[nH]2)[nH]c1=O,"20 µM [falling, partial curve]"
9,COc1cccc(-c2cc3nc4c(c(N5CCC6(CC5)OCCO6)n3n2)CCCC4)c1,"5.01 µM [falling, full curve]"
10,O=C(NCc1ccco1)c1ccc2c(c1)N(Cc1ccccc1)C(=O)c1ccccc1S2,"20 µM [falling, single point]"
11,CCC1CCCCN1C(=O)c1c[nH]c2ccc(S(=O)(=O)Nc3cccc(OC)c3)cc2c1=O (stereo not drawn),"1.26 µM [falling, single point]"
12,Cc1cc(C)c(S(=O)(=O)NCCc2sc3nc(-c4ccc(F)cc4)nn3c2C)c(C)c1,"25.1 µM [falling, partial curve]"
13,CCOc1ccc(NC(=O)CCc2c(C)nc3cc(-c4ccccc4OC)nn3c2C)cc1,"0.631 µM [falling, full curve]"
14,COC(=O)c1ccc(CSc2c(C(C)C)cnc3c2c(=O)n(C)c(=O)n3C)cc1,"20 µM [falling, partial curve]"
15,Cc1ccc(N(C)S(=O)(=O)c2ccc3[nH]c(=O)ccc3c2)cc1,"3.16 µM [falling, partial curve]"
16,CSc1nc(N)c(C#N)c(-c2ccc(Cl)cc2)c1C#N,"39.8 µM [falling, single point]"
17,Cc1ccc(NC(=O)c2sc3ncnc(N(C)C4CCCCC4)c3c2C)c(C)c1,"25.1 µM [falling, single point]"
18,O=C(CC1N=C2c3ccccc3N=C(SCc3cccc(Cl)c3)N2C1=O)NC1CCCCC1 (stereo not drawn),"25.1 µM [falling, single point]"

# Some of these compounds in order of SMILES length, low to high:
row,Compound,AC50
8,C=CCc1c(C)nc(SCc2nc3ccccc3c(=O)[nH]2)[nH]c1=O,"20 µM [falling, partial curve]"
7,CCCNC(=O)Cn1nc(-c2ccc(OC)cc2)c2cnc3ccc(F)cc3c21,"0.0158 µM [rising, full curve, poor fit]"
17,Cc1ccc(NC(=O)c2sc3ncnc(N(C)C4CCCCC4)c3c2C)c(C)c1,"25.1 µM [falling, single point]"
14,COC(=O)c1ccc(CSc2c(C(C)C)cnc3c2c(=O)n(C)c(=O)n3C)cc1,"20 µM [falling, partial curve]"
